Results are given in words; binding and its absence hold for the method and conditions named. Some binding calls cover weakened binding; strength is not graded here.
Target: extracellular tau in the form of paired helical filaments (ePHF) (UniProt P10636)
Assay: ELISA, ePHF tau coated on plate, control antibody, anti-mouse HRP detection

By UniProt entry, the sequences of proteins in these tests, tags left out. Where a name states a change or a piece, a line headed by the entry shows the natural chain unless it says otherwise. Chains listed by the source or under a name are the forms on record and can include a tag or linker.
extracellular tau in the form of paired helical filaments (ePHF) (P10636, form named): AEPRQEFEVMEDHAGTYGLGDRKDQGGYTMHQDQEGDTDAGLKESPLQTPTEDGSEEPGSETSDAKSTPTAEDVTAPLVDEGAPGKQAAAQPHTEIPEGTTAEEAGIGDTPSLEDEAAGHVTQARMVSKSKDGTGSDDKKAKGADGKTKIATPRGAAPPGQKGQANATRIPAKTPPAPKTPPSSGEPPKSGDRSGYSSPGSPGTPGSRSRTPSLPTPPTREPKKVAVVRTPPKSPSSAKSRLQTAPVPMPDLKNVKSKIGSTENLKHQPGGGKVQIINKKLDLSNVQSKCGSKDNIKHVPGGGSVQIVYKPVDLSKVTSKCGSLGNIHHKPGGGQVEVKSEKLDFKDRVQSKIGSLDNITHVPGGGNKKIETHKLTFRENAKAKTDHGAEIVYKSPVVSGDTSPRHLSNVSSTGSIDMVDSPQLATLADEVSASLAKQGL

B1: anti-tau antibody IPN002 (control antibody) (antibody, mouse IgG1, kappa, V domains shown)
VH: EVHLVESGGALVKPGGSLKLSCAASGFSFSKYGMSWVRQTPDKRLEWVATISSSGSRTYYPDSVKGQFTISRDNAKNTLYLQMSSLKSEDTAMYYCSISWDGAMDYWGQGTSVTVSS
VL: DVLMTQTPLSLPVSLGDQASISCKSSQSIVHSNGNTYLEWYLQKPGQSPKLLVYKVSNRFSGVPDRFSGSGSGTDFTLKISRVEAEDLGTYYCFQGSLVPWAFGGGTKLEIKR
B1 was tested, and the binding was “binds”.

Reference: patent US20190224339A1
